Data published in the supplement of paper PMC10849652.
The list shows a part of the results.

Sequences of proteins named here, by UniProt entry; tags and fusion partners are left off. A change or cut given only in a name is not applied to a line headed by its entry.
UniProt Q8IYS2: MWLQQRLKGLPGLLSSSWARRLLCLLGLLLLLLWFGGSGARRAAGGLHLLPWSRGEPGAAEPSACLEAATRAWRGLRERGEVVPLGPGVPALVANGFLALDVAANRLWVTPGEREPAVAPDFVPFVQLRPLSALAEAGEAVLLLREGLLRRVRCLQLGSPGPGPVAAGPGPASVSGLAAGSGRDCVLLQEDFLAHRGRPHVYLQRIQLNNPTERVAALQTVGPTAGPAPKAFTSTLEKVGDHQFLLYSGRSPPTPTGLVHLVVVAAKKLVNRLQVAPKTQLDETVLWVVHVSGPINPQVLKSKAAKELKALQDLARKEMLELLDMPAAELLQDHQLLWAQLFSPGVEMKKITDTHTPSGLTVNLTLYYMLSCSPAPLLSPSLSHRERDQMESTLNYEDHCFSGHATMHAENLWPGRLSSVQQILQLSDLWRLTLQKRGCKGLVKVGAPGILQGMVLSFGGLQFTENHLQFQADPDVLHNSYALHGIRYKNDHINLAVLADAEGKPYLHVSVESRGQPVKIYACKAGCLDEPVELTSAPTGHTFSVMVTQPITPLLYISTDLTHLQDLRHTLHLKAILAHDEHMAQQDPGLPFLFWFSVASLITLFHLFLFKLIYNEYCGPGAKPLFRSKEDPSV
UniProt Q16773: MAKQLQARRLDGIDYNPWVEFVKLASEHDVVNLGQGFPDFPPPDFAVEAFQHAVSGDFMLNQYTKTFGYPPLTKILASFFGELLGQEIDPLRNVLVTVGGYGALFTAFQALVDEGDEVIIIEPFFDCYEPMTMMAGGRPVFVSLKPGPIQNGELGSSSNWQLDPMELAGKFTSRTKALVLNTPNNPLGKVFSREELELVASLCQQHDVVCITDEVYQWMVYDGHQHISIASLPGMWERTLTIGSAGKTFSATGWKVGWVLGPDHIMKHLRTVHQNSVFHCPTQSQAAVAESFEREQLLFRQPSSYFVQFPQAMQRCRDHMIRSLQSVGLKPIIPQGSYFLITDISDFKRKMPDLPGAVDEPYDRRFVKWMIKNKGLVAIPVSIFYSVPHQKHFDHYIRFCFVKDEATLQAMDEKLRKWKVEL
UniProt Q9Y2Q5, whole entry, looked up: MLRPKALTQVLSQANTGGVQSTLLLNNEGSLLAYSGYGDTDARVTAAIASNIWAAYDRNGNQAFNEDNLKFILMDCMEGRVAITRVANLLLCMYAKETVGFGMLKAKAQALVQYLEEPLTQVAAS
UniProt Q07666, whole entry, looked up: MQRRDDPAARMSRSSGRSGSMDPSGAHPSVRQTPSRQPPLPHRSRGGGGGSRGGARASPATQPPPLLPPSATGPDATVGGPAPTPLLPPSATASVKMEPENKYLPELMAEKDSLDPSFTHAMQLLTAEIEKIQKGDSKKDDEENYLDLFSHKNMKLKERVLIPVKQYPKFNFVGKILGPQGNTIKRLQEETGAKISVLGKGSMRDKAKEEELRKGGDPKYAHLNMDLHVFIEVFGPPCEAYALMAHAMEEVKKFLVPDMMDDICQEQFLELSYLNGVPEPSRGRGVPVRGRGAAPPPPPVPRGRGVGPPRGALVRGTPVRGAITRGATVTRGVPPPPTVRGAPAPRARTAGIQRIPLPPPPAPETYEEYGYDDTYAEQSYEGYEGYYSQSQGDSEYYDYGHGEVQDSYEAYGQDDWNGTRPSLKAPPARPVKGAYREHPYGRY
UniProt Q8IVT5: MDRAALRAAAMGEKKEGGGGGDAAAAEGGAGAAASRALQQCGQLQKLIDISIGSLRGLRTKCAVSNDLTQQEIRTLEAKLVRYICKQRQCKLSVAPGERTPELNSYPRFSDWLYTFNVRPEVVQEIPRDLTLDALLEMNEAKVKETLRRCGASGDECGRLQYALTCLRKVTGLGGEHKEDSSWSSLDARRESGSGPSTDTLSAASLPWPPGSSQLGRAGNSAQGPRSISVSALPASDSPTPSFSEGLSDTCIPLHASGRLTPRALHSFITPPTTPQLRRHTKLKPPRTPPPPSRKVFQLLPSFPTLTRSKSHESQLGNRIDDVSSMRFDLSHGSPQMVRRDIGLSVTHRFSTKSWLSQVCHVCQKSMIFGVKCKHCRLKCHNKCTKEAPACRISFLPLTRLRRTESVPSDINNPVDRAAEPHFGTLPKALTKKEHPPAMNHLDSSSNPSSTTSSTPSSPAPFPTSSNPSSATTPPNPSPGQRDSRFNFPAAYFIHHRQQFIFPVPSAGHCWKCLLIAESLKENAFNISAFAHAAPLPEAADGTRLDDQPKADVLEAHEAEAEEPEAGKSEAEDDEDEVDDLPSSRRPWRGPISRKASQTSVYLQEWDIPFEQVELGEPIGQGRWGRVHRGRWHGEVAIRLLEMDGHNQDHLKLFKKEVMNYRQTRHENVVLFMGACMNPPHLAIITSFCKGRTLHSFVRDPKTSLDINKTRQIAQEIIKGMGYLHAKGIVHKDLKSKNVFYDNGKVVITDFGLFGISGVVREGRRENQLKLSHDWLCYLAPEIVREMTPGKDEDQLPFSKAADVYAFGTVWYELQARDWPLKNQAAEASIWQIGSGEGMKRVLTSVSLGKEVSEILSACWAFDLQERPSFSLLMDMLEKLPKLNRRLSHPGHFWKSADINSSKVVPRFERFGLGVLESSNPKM
UniProt P52294, whole entry, looked up: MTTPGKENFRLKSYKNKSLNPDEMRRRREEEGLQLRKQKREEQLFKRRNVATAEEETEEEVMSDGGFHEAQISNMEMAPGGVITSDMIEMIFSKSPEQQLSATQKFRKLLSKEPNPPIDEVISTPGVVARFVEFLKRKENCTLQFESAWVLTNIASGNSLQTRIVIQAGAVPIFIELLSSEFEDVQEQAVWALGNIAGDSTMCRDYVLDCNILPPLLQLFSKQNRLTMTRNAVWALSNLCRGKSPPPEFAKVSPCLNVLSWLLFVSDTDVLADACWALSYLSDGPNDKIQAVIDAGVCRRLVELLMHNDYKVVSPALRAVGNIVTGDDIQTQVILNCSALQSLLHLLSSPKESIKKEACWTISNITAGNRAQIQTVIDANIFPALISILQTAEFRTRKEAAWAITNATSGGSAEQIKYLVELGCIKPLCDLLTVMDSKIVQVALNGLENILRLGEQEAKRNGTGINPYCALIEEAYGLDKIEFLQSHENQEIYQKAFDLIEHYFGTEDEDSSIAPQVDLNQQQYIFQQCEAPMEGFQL
UniProt Q9H1H9: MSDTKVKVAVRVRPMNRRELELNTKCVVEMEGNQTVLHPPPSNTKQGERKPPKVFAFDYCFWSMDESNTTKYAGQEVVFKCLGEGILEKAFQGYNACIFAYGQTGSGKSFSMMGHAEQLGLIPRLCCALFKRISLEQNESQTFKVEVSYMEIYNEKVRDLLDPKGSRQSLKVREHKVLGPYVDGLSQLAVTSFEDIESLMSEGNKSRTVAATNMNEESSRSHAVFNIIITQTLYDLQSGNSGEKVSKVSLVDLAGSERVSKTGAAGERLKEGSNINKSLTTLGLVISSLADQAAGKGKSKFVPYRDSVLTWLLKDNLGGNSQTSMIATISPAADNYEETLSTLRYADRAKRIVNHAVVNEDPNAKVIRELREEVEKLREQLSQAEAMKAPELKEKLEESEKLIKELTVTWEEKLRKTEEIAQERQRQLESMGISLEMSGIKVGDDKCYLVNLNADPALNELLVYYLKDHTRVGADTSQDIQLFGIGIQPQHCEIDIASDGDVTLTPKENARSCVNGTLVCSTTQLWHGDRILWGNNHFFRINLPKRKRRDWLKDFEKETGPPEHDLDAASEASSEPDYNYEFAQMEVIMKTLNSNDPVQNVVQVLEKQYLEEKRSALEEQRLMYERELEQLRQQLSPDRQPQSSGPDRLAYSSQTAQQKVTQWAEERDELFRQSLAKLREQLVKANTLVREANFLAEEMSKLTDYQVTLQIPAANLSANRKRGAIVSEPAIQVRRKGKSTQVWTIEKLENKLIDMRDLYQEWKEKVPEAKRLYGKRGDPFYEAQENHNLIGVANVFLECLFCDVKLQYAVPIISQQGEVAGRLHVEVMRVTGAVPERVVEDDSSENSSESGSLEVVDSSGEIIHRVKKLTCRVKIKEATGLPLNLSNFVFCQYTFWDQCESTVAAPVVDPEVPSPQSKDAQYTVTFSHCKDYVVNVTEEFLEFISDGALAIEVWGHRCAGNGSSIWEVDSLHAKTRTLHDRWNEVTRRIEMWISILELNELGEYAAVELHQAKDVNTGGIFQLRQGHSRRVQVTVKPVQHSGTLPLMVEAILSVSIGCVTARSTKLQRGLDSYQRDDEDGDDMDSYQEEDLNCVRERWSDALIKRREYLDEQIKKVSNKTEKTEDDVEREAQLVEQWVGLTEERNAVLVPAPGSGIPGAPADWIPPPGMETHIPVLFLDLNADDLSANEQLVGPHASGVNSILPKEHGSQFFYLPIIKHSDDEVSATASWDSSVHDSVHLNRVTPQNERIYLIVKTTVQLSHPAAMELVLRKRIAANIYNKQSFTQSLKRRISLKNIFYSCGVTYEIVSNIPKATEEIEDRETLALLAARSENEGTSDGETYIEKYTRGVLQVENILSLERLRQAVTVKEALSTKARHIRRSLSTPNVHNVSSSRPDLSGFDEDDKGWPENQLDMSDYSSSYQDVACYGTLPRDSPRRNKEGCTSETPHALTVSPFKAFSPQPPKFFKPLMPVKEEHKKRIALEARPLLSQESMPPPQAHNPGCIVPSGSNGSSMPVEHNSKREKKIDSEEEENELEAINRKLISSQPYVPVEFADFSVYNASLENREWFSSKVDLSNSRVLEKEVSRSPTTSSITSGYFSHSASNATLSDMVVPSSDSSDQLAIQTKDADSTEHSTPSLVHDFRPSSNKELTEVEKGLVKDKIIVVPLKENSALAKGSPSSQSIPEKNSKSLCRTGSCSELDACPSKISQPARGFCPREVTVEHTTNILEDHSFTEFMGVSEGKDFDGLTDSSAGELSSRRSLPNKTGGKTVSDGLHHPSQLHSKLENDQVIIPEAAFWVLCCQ
UniProt Q8N4N3: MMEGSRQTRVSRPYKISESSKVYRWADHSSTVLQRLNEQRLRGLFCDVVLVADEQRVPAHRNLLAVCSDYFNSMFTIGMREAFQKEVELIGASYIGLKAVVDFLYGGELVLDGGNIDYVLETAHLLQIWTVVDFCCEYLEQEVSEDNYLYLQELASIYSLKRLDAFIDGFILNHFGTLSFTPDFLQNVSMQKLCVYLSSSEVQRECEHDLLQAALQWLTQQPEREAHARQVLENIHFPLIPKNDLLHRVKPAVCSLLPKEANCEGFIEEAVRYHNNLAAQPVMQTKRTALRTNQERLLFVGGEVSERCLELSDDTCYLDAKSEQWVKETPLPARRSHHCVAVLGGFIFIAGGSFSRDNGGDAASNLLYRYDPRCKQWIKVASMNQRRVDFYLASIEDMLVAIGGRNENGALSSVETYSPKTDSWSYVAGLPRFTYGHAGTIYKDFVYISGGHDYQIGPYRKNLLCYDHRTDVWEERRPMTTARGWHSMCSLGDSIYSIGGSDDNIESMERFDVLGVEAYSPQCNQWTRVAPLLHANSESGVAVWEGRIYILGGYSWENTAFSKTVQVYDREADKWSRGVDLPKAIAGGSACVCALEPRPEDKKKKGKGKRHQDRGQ
UniProt A8MWY0: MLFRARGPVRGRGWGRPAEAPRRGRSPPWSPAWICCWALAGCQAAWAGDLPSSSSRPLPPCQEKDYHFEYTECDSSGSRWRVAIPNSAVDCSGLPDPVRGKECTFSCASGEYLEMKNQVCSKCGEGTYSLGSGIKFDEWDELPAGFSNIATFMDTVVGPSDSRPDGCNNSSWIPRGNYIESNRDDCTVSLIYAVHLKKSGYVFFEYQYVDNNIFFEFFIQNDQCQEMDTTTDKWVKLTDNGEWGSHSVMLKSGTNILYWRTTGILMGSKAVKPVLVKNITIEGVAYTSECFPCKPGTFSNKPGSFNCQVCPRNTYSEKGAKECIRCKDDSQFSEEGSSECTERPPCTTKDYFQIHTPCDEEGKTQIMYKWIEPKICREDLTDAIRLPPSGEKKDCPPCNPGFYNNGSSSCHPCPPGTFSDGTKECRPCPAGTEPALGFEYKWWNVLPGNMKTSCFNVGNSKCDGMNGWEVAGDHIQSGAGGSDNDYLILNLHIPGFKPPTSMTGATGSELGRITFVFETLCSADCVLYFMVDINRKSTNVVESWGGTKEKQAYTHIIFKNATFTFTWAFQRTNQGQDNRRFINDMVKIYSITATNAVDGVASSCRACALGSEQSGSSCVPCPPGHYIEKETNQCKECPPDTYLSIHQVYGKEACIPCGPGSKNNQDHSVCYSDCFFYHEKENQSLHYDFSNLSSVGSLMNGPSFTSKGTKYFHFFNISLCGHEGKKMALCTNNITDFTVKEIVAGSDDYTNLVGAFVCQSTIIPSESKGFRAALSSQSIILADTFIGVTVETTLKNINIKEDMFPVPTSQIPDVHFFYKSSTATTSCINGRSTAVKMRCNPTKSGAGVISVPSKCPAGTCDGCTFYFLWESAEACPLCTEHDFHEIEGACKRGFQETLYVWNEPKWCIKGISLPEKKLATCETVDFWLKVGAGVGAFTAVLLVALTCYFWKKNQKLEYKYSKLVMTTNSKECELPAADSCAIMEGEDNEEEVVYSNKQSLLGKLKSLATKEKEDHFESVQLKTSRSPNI

Legend:
Assay in all cases: log2 fold change, soluble protein after heating vs DMSO (PISA); higher = thermal stabilisation; K562 lysate, 10 uM; active = over 0.2 and 3.5 SD of the protein, either way, in both replicates (recomputed)
ibrutinib = compound: C=CC(=O)N1CCC[C@@H](n2nc(-c3ccc(Oc4ccccc4)cc3)c3c(N)ncnc32)C1 [ibrutinib]
How it was run: (§1)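 The values are log-two fold changes in thermal stability compared with solvent controls and come from duplicates. They were obtained by TMTpro 16plex LC-MS/MS, with channel sums equalised, on the supernatant after 21,000xg for 90 min. That supernatant came from crude K562 extract at 1 mg/mL protein treated with 10 μM compound for 30 min, heated for 3 min across 48°C-58°C, pooled and brought to 0.5% NP-40 at 4°C.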

[1] = compound: CC(=O)c1cnc2ccc(-c3cc(Cl)c(O)c(Cl)c3)nc2c1N[C@H]1CC[C@H](CN(C)C)CC1
How it was run: as §1

ralimetinib = compound: CC(C)(C)Cn1c(N)nc2ccc(-c3[nH]c(C(C)(C)C)nc3-c3ccc(F)cc3)nc21 [ralimetinib]
How it was run: as §1

[2] = compound: CC(C)(O)CC(=O)NCCn1ccc2ncnc(Nc3ccc(Oc4cccc(C(F)(F)F)c4)c(Cl)c3)c21
How it was run: as §1

[3] = compound: CC(C)C1=C2N=C(C=C(N2N=C1)NCC3=CC=CC=C3)NCCCCCCN
How it was run: as §1

[4] = compound: CC1=C(C(CC(=O)N1)C2=CC=C(C=C2)C(F)(F)F)C(=O)NC3=C(C=C4C(=C3)C=NN4)F
How it was run: as §1

[5] = compound: CC1=C(C2=C(C=C1)C(=O)C3=CC=CC=C3N2CCCN)C
How it was run: as §1

[6] = compound: CC1=C(C=C(C=C1)NC(=O)C2=CC(=CC=C2)C(C)(C)C#N)NC3=CC4=C(C=C3)N=CN(C4=O)C
How it was run: as §1

[7] = compound: CC1=C(C=C(C=C1)NC(=O)C2=CC(=CC=C2)N(C)C)NC(=O)C3=CC=C(C=C3)O
How it was run: as §1

[8] = compound: CC1=CC=C(C=C1)SC2=C3C=C(SC3=CN=C2)C(=O)N
How it was run: as §1

vemurafenib = compound: CCCS(=O)(=O)Nc1ccc(F)c(C(=O)c2c[nH]c3ncc(-c4ccc(Cl)cc4)cc23)c1F [vemurafenib]
How it was run: as §1

[9] = compound: CCCS(=O)(=O)Nc1ccc(F)c(C(=O)c2c[nH]c3ncc(Cl)cc23)c1F
How it was run: as §1

barasertib = compound: CCN(CCCOc1ccc2c(Nc3cc(CC(=O)Nc4cccc(F)c4)[nH]n3)ncnc2c1)CCOP(=O)(O)O [barasertib]
How it was run: as §1

[10] = compound: CC[C@@H]1C(=O)N(C)c2cnc(Nc3ccc(C(=O)NC4CCN(C)CC4)cc3OC)nc2N1C1CCCC1
How it was run: as §1

volasertib = compound: CC[C@@H]1C(=O)N(C)c2cnc(Nc3ccc(C(=O)N[C@H]4CC[C@H](N5CCN(CC6CC6)CC5)CC4)cc3OC)nc2N1C(C)C [volasertib]
How it was run: as §1

[11] = compound: CCn1c(C(=O)N(C2CC2)C2CC2)cc2c3c(ncn3C)c(Nc3cc(C)n(C)n3)nc21
How it was run: as §1

[12] = compound: CCn1cc(-c2ccnc3[nH]c(-c4cccc(CN(C)C)c4)cc23)c(-c2ccc(NC(=O)N(C)C)cc2)n1
How it was run: as §1

[13] = compound: CN1CCC(CNc2ccc3ncc(-c4cccc(OC(F)(F)F)c4)n3n2)CC1
How it was run: as §1

saracatinib = compound: CN1CCN(CCOc2cc(OC3CCOCC3)c3c(Nc4c(Cl)ccc5c4OCO5)ncnc3c2)CC1 [saracatinib]
How it was run: as §1

sotrastaurin = compound: CN1CCN(c2nc(C3=C(c4c[nH]c5ccccc45)C(=O)NC3=O)c3ccccc3n2)CC1 [sotrastaurin]
How it was run: as §1

Target	log2 fold change (ibrutinib)	log2 fold change [1]	log2 fold change (ralimetinib)	log2 fold change [2]	log2 fold change [3]	log2 fold change [4]	log2 fold change [5]	log2 fold change [6]	log2 fold change [7]	log2 fold change [8]	log2 fold change (vemurafenib)	log2 fold change [9]	log2 fold change (barasertib)	log2 fold change [10]	log2 fold change (volasertib)	log2 fold change [11]	log2 fold change [12]	log2 fold change [13]	log2 fold change (saracatinib)	log2 fold change (sotrastaurin)
KIAA2013 (UniProt Q8IYS2)	inactive: 0.001	inactive: 0.013	inactive: 0.019	inactive: 0.012	inactive: -0.004	inactive: 0.066	inactive: 0.005	inactive: -0.019	inactive: -0.029	inactive: 0.013	inactive: -0.047	inactive: 0.031	inactive: 0.016	inactive: -0.032	inactive: 0.006	inactive: 0.014	inactive: 0.037	inactive: 0.017	inactive: 0.026	inactive: -0.074
KLHL18 (UniProt O94889)	inactive: 0.018	inactive: 0.005	inactive: 0.026	inactive: -0.007	inactive: 0.045	inactive: 0.073	inactive: -0.034	inactive: -0.001	inactive: 0.011	inactive: 0.022	inactive: 0	inactive: 0.002	inactive: 0.013	inactive: -0.017	inactive: -0.035	inactive: 0.007	inactive: -0.051	inactive: 0.016	inactive: -0.025	inactive: 0.107
KIAA0513 (UniProt O60268)	inactive: 0.005	inactive: 0.004	inactive: -0.047	inactive: -0.047	inactive: 0.003	inactive: 0.056	inactive: -0.019	inactive: 0.011	inactive: -0.01	inactive: -0.03	inactive: 0.01	inactive: 0.032	inactive: -0.005	inactive: 0.012	inactive: -0.002	inactive: -0.01	inactive: -0.067	inactive: 0.074	inactive: 0.018	inactive: -0.011
LAMTOR1 (UniProt Q6IAA8)	inactive: 0.053	inactive: -0.063	inactive: 0.001	inactive: -0.036	inactive: -0.009	inactive: 0.008	inactive: -0.09	inactive: 0.023	inactive: 0.025	inactive: 0.039	inactive: -0.013	inactive: 0.009	inactive: 0.104	inactive: -0.03	inactive: 0.064	inactive: -0.046	inactive: -0.112	inactive: -0.07	inactive: 0	inactive: -0.056
KYAT1 (UniProt Q16773)	inactive: -0.003	inactive: 0.007	inactive: -0.006	inactive: -0.017	inactive: 0.005	inactive: -0.037	inactive: -0.024	inactive: 0.01	inactive: -0.01	inactive: -0.025	inactive: 0.002	inactive: 0.001	inactive: -0.048	inactive: 0.014	inactive: 0.009	inactive: -0.051	inactive: -0.139	inactive: 0.113	inactive: -0.01	inactive: -0.001
LAMTOR2 (UniProt Q9Y2Q5)	inactive: 0.002	inactive: -0.087	inactive: 0	inactive: -0.038	inactive: -0.009	inactive: -0.039	inactive: -0.014	inactive: 0.058	inactive: 0.026	inactive: 0.055	inactive: -0.018	inactive: -0.001	inactive: 0.141	inactive: 0.006	inactive: 0.033	inactive: -0.065	inactive: -0.003	inactive: 0.018	inactive: -0.017	inactive: 0.04
KNSTRN (UniProt Q9Y448)	inactive: -0.017	inactive: 0.018	inactive: 0.027	inactive: 0.081	inactive: -0.008	inactive: 0.022	inactive: -0.023	inactive: -0.032	inactive: 0	inactive: 0.002	inactive: -0.012	inactive: 0.021	inactive: 0.022	inactive: 0.01	inactive: 0.004	inactive: 0.086	inactive: 0.063	inactive: -0.095	inactive: 0.009	inactive: -0.03
KHDRBS1 (UniProt Q07666)	inactive: 0.023	active: -0.517	inactive: -0.021	inactive: -0.009	inactive: 0.016	inactive: 0.023	inactive: 0.007	inactive: -0.026	inactive: 0	inactive: 0.044	inactive: -0.025	inactive: 0.004	inactive: 0.034	inactive: -0.024	inactive: -0.024	inactive: -0.002	inactive: 0.083	inactive: -0.048	inactive: -0.004	inactive: -0.008
KIF2A isoform 4 (UniProt O00139)	inactive: 0.031	inactive: 0	inactive: 0.017	inactive: 0.009	inactive: 0.002	inactive: -0.01	inactive: -0.002	inactive: -0.02	inactive: 0.032	inactive: 0.018	inactive: -0.006	inactive: 0	inactive: -0.014	inactive: -0.117	inactive: -0.032	inactive: 0.042	inactive: -0.013	inactive: 0.009	inactive: 0.021	inactive: 0.023
KSR1 (UniProt Q8IVT5)	inactive: 0.021	inactive: -0.103	inactive: 0.054	inactive: 0.021	inactive: -0.025	inactive: -0.011	inactive: -0.032	inactive: 0.007	inactive: 0.019	inactive: -0.074	inactive: 0.021	inactive: 0.049	inactive: -0.022	inactive: -0.009	inactive: 0.016	inactive: 0.009	inactive: 0.187	inactive: -0.056	inactive: -0.003	inactive: -0.065
KPNA1 (UniProt P52294)	inactive: 0.005	inactive: -0.008	inactive: -0.002	inactive: 0.003	inactive: -0.014	inactive: 0.018	inactive: 0.014	inactive: -0.004	inactive: 0	inactive: 0.012	inactive: 0.002	inactive: 0.037	inactive: -0.005	inactive: -0.126	inactive: -0.036	inactive: -0.017	inactive: -0.005	inactive: -0.041	inactive: -0.004	inactive: 0.042
KIF13A isoform 4 (UniProt Q9H1H9)	inactive: 0.036	inactive: -0.012	inactive: 0.018	inactive: -0.027	inactive: -0.039	inactive: -0.067	inactive: -0.004	inactive: -0.042	inactive: 0.009	inactive: 0.014	inactive: -0.039	inactive: 0.008	inactive: 0.009	inactive: 0.012	inactive: -0.033	inactive: -0.014	inactive: 0.035	inactive: -0.045	inactive: -0.016	inactive: 0.019
KLHL36 (UniProt Q8N4N3)	inactive: 0.002	inactive: -0.047	inactive: 0.092	inactive: -0.028	inactive: 0.053	inactive: -0.008	inactive: -0.085	inactive: -0.005	inactive: -0.098	inactive: -0.003	inactive: 0.024	inactive: 0.106	inactive: -0.088	inactive: 0.077	inactive: -0.127	inactive: 0.1	inactive: -0.006	inactive: -0.048	inactive: -0.031	inactive: 0.099
KIAA1191 (UniProt Q96A73)	inactive: 0.016	inactive: -0.016	inactive: -0.046	inactive: -0.053	inactive: 0.002	inactive: 0.054	inactive: -0.059	inactive: 0.026	inactive: -0.028	inactive: -0.063	inactive: 0.085	inactive: 0.03	inactive: 0.013	inactive: 0.136	inactive: 0.028	inactive: -0.007	inactive: 0.023	inactive: 0.007	inactive: 0.01	inactive: -0.062
KIAA1324L (UniProt A8MWY0)	inactive: 0.059	inactive: -0.007	inactive: -0.009	inactive: -0.026	inactive: -0.031	inactive: 0.028	inactive: -0.009	inactive: 0.004	inactive: 0.023	inactive: -0.005	inactive: 0.013	inactive: 0.009	inactive: 0	inactive: 0.086	inactive: 0.007	inactive: -0.059	inactive: 1.11	inactive: 0.065	inactive: -0.025	inactive: 0.063
KDM5C (UniProt P41229)	inactive: 0.089	inactive: -0.132	inactive: 0.005	inactive: -0.02	inactive: 0.015	inactive: 0.01	inactive: 0.012	inactive: -0.013	inactive: 0.031	inactive: 0.001	inactive: 0.001	inactive: 0.036	inactive: 0.096	inactive: -0.031	inactive: 0.004	inactive: -0.001	inactive: -0.028	inactive: -0.059	inactive: 0.008	inactive: 0.019

Random excerpt: 2 records from the list
Target	log2 fold change (ibrutinib)	log2 fold change [1]	log2 fold change (ralimetinib)	log2 fold change [2]	log2 fold change [3]	log2 fold change [4]	log2 fold change [5]	log2 fold change [6]	log2 fold change [7]	log2 fold change [8]	log2 fold change (vemurafenib)	log2 fold change [9]	log2 fold change (barasertib)	log2 fold change [10]	log2 fold change (volasertib)	log2 fold change [11]	log2 fold change [12]	log2 fold change [13]	log2 fold change (saracatinib)	log2 fold change (sotrastaurin)
LAMTOR2 (UniProt Q9Y2Q5)	inactive: 0.002	inactive: -0.087	inactive: 0	inactive: -0.038	inactive: -0.009	inactive: -0.039	inactive: -0.014	inactive: 0.058	inactive: 0.026	inactive: 0.055	inactive: -0.018	inactive: -0.001	inactive: 0.141	inactive: 0.006	inactive: 0.033	inactive: -0.065	inactive: -0.003	inactive: 0.018	inactive: -0.017	inactive: 0.04
KLHL18 (UniProt O94889)	inactive: 0.018	inactive: 0.005	inactive: 0.026	inactive: -0.007	inactive: 0.045	inactive: 0.073	inactive: -0.034	inactive: -0.001	inactive: 0.011	inactive: 0.022	inactive: 0	inactive: 0.002	inactive: 0.013	inactive: -0.017	inactive: -0.035	inactive: 0.007	inactive: -0.051	inactive: 0.016	inactive: -0.025	inactive: 0.107
